The supplement of paper PMC6411743
± gives the standard deviation of the averaged measurements. This is a selection; strong and weak results do not stand in their true shares. Small differences around the control level are noise.

Chains of the proteins cited; added tags and fusions are not shown. Lines headed by an entry give the natural chain unless they say otherwise; changes in a name come on top.
UniProt P55273: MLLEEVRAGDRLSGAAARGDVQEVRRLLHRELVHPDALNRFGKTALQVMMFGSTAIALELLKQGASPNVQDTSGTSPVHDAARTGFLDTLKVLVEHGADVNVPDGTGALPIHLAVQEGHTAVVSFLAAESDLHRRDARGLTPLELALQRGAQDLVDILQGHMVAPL
UniProt P50613: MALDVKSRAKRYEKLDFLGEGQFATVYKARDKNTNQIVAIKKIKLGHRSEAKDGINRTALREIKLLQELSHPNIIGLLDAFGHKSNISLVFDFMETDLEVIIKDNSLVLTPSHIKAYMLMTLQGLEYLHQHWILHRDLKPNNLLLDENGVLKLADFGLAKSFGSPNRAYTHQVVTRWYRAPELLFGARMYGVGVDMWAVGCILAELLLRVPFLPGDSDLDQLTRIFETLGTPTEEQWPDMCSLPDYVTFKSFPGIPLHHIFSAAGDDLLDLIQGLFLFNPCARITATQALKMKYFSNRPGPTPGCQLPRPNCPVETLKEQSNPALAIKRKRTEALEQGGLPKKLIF
UniProt P49916: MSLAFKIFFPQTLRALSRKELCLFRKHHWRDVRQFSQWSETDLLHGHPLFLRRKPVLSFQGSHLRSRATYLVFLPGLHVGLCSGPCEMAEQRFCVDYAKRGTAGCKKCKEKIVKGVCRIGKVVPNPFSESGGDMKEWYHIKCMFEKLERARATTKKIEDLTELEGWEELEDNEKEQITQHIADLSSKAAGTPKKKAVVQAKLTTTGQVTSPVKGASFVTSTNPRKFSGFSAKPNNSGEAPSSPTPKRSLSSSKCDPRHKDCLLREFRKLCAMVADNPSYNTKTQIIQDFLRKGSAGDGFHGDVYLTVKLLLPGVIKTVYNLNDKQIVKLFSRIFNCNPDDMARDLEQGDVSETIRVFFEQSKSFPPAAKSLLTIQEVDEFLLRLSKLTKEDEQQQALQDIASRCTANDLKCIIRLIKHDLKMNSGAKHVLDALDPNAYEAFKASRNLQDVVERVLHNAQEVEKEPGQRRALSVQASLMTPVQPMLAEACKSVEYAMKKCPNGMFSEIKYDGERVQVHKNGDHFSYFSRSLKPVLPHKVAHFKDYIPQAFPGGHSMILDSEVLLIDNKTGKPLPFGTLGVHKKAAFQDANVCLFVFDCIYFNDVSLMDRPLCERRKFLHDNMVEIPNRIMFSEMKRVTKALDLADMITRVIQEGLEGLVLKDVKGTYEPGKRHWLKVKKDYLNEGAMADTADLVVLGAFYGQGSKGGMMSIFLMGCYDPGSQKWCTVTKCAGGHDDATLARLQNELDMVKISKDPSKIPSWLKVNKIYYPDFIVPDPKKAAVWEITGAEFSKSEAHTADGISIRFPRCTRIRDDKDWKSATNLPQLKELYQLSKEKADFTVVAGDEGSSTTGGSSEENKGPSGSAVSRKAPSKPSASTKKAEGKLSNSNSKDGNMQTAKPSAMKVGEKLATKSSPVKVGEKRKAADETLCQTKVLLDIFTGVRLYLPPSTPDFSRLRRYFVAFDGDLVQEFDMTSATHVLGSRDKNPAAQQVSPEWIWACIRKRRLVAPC
UniProt P52756, whole entry: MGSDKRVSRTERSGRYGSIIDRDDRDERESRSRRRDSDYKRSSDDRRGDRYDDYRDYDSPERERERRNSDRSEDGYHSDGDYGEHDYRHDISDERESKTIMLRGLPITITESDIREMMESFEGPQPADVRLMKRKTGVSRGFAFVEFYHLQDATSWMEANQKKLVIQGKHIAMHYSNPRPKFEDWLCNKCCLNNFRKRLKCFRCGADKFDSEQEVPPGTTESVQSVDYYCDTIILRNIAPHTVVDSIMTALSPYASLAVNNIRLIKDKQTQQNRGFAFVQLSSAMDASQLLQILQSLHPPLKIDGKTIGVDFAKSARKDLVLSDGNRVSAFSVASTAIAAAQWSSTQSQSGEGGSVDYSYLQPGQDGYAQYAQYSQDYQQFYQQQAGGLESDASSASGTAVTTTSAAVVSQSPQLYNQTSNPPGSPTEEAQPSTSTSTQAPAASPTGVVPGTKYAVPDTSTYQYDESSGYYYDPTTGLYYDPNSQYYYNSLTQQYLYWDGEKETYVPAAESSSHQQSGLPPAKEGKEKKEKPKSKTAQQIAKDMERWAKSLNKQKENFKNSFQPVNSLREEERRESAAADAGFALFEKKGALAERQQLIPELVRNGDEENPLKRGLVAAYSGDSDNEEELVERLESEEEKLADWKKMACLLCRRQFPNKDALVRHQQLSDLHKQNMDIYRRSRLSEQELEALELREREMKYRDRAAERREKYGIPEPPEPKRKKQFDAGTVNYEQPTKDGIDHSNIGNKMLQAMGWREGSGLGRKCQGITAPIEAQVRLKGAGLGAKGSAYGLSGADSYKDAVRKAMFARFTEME
UniProt P49902: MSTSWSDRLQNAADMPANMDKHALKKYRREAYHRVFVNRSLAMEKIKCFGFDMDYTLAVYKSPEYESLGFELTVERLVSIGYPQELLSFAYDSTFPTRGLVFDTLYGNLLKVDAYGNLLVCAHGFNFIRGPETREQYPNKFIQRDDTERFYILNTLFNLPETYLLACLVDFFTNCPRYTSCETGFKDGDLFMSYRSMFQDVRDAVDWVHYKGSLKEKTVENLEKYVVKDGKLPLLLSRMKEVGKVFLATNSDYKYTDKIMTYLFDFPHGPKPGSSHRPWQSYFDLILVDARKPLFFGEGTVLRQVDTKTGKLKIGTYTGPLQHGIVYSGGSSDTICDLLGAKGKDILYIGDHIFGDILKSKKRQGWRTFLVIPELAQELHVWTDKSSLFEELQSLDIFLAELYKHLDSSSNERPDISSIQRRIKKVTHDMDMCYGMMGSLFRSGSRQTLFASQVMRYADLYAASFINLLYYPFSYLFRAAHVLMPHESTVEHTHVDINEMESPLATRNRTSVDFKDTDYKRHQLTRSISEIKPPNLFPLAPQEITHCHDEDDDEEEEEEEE
UniProt P42566: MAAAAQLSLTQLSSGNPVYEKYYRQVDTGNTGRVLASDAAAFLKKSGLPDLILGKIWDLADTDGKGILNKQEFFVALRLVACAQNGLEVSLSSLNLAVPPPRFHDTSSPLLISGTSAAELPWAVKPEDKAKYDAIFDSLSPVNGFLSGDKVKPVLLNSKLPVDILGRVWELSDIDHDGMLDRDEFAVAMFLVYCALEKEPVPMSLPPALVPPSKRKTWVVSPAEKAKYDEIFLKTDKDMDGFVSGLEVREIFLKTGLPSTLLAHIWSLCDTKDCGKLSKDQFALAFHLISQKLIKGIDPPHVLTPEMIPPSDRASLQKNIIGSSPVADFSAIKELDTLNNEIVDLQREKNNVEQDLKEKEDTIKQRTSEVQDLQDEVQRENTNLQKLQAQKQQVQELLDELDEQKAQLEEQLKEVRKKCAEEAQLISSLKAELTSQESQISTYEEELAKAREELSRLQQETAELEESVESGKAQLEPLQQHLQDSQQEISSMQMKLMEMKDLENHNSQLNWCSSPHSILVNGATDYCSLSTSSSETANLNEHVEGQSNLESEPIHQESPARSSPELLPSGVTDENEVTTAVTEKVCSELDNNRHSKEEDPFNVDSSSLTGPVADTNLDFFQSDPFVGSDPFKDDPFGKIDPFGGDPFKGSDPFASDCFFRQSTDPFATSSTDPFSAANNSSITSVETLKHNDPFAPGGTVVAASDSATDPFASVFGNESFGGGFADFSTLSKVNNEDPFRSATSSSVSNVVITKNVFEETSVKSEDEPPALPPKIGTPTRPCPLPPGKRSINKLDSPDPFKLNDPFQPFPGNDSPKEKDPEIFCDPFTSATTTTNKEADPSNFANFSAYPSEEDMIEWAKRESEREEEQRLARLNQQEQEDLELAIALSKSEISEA
UniProt P51148: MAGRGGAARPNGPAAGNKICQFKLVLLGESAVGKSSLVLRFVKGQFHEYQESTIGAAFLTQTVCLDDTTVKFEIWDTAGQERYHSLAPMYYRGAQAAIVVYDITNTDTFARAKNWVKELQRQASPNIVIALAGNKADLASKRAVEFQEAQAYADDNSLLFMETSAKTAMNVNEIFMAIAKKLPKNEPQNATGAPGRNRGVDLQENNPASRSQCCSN
UniProt P41214: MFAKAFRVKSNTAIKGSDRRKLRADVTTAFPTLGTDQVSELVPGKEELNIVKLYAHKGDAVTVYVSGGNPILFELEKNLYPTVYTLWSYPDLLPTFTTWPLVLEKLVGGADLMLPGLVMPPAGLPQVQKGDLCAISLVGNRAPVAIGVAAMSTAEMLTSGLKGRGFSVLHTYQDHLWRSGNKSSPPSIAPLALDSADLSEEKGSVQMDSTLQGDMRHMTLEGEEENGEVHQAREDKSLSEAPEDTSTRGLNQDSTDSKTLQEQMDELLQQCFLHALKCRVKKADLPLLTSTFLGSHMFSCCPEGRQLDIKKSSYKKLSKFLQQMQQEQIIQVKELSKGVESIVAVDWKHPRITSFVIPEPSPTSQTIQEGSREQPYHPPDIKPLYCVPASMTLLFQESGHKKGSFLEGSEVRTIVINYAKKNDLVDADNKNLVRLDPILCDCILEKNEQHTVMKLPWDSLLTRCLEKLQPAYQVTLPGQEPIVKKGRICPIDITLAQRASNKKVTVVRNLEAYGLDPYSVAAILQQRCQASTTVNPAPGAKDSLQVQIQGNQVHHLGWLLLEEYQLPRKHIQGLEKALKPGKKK
UniProt P51649: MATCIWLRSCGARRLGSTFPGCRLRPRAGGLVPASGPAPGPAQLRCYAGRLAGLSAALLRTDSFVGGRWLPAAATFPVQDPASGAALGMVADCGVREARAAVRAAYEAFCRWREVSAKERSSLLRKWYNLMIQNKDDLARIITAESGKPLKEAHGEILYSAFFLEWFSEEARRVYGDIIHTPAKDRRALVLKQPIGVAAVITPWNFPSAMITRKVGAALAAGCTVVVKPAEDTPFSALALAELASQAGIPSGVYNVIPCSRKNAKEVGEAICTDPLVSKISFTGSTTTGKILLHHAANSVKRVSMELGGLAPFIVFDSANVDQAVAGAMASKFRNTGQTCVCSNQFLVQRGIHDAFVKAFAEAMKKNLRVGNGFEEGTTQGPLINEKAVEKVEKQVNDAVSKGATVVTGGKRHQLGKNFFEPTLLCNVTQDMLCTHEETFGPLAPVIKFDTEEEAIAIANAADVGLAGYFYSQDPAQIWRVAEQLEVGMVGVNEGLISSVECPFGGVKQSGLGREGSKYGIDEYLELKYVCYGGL
UniProt P49590: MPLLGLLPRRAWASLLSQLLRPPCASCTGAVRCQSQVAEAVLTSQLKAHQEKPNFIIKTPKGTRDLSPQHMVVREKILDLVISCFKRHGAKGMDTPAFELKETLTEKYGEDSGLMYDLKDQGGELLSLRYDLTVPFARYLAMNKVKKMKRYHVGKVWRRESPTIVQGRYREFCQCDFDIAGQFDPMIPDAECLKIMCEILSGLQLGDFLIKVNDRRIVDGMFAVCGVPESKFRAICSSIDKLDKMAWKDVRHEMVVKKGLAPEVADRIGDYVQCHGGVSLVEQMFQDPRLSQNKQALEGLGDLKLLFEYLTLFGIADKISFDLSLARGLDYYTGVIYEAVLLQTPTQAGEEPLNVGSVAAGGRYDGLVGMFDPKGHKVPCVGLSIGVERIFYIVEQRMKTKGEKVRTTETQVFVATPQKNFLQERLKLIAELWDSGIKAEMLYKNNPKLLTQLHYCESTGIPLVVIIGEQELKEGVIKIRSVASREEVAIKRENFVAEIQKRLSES
UniProt P52758: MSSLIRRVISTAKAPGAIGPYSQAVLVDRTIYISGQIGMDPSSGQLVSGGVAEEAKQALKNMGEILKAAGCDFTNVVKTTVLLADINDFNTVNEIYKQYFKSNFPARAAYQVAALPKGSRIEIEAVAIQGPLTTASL
UniProt P51178: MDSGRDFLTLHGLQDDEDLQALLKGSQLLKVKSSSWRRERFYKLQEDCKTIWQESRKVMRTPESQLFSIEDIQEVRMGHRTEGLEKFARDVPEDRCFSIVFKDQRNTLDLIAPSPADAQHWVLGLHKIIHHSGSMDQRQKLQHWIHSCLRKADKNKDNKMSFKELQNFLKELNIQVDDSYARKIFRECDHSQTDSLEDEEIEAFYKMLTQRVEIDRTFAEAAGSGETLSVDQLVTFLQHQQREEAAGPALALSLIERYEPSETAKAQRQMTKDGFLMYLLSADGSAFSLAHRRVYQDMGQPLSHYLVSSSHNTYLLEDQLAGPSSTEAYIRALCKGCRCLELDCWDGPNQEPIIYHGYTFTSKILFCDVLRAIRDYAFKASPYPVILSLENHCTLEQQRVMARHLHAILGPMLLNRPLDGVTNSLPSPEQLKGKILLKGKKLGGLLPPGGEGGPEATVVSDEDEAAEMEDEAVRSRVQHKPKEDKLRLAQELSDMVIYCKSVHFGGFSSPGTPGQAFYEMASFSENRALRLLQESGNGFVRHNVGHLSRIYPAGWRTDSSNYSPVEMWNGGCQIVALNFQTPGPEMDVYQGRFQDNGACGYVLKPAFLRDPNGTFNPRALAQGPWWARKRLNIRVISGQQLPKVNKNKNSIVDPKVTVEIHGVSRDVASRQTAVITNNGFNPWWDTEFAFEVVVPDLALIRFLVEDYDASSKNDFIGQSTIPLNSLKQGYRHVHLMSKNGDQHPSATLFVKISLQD

Compound: Nc1ncnc2c1ncn2[C@@H]1O[C@H](COP(=O)(O)OP(=O)(O)NP(=O)(O)O)[C@@H](O)[C@H]1O [adenylyl imidodiphosphate]
Experiment: NP40-soluble protein abundance relative to vehicle (solubility fold change) (ratio); higher = more soluble protein in presence of AMP-PNP
Method in brief: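 Eight concentrations, 0.1 to 10 mM, were tested on Jurkat crude lysate for 10 min at room temperature and then 3 min at 37 °C, in three independent experiments. The lysate was solubilised with 0.8% NP40 and benzonase, ultracentrifuged, and the supernatant TMT-labelled for LC-MS/MS. Each value is the fold change against the detergent-processed vehicle in its own replicate, from vsn-normalised intensities.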

Row | Target | NP40-soluble protein abundance (concentration: 0.1mM) | NP40-soluble protein abundance (concentration: 0.5mM)
1 | CDKN2D (UniProt P55273) | 1.01 ± 0.0093 | 1.01 ± 0.013
2 | ELL (UniProt P55199) | 0.991 ± 0.029 | 0.9878 ± 0.0077
3 | SEC13 (UniProt P55735) | 1 ± 0.028 | 1 ± 0.061
4 | UniProt P50613 | 1.01 ± 0.013 | 1.01 ± 0.042
5 | UniProt P49916 and related entries | 1.01 ± 0.024 | 0.996 ± 0.022
6 | RBM5 (UniProt P52756) | 1.02 ± 0.03 | 1.01 ± 0.024
7 | NT5C2 (UniProt P49902) | 1.03 ± 0.031 | 1.05 ± 0.086
8 | EPS15 (UniProt P42566) | 0.993 ± 0.019 | 0.984 ± 0.04
9 | UniProt P51148 and related entries | 0.989 ± 0.04 | 0.987 ± 0.058
10 | UniProt P49406 and related entries | 1.03 ± 0.07 | 0.987 ± 0.076
11 | UniProt P49841 and related entries | 0.99 ± 0.019 | 0.9938 ± 0.007
12 | RBM34 (UniProt P42696) | 0.995 ± 0.051 | 1 ± 0.068
13 | UniProt P41214 | 0.993 ± 0.025 | 0.9888 ± 0.0083
14 | UniProt P51649 and related entries | 0.982 ± 0.038 | 0.969 ± 0.014
15 | UniProt P49590 and related entries | 1.06 ± 0.04 | 0.94 ± 0.071
16 | UniProt P52758 | 0.988 ± 0.034 | 1.03 ± 0.059
17 | UniProt P51178 and related entries | 0.998 ± 0.042 | 0.984 ± 0.044
18 | POLR2K (UniProt P53803) | 1.04 ± 0.028 | 1.02 ± 0.026
19 | PTDSS1 (UniProt P48651) | 1.01 ± 0.041 | 1.01 ± 0.048
20 | SLC25A1 (UniProt P53007) | 0.989 ± 0.02 | 0.957 ± 0.084
21 | WAS (UniProt P42768) | 0.968 ± 0.024 | 0.987 ± 0.059
22 | UniProt P53990 and related entries | 0.9642 ± 0.0052 | 0.975 ± 0.032

Taken from the listing for reference:
Row | Target | NP40-soluble protein abundance (concentration: 0.1mM) | NP40-soluble protein abundance (concentration: 0.5mM)
8 | EPS15 (UniProt P42566) | 0.993 ± 0.019 | 0.984 ± 0.04
9 | UniProt P51148 and related entries | 0.989 ± 0.04 | 0.987 ± 0.058
